# Reference: publication PMC6925144, “A prospective compound screening contest identified broader inhibitors for Sirtuin 1” (Scientific Reports, 2019)
# Sequences of proteins named here, by UniProt entry; tags and fusion partners are left off. Residues count along the entry.
# UniProt Q96EB6, 2-747 limits assumed: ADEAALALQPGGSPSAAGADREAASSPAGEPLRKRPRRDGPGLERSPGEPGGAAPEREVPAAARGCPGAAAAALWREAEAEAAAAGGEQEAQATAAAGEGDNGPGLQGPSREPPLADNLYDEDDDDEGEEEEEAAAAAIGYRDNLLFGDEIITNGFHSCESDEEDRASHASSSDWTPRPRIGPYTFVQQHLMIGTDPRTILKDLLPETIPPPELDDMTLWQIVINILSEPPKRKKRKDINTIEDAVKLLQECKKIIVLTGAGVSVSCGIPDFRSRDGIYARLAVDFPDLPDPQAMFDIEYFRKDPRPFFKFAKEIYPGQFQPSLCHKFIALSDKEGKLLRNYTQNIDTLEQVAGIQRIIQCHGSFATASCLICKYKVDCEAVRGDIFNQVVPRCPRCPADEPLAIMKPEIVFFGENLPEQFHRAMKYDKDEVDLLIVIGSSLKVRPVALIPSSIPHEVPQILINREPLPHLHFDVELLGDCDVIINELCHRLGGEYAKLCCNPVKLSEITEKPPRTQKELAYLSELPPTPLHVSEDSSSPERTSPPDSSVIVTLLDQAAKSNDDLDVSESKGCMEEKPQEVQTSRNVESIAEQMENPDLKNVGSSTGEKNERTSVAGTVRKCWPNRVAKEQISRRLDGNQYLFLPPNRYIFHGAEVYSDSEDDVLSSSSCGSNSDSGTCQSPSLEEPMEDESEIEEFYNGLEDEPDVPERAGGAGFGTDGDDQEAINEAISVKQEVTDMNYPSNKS
# Over roughly 3,200 compounds, “TSA(with NAD+) / Primary screening (TSA) / delta Tm (K)” has its median near -0.04; the highest 2% begin near 0.37. Some of the results follow.
# Biological target: NAD-dependent deacetylase Sirtuin 1 (human, UniProt Q96EB6)
# Assay: primary screen, delta tm
# Design: single well (n = 1, as 'the same TSA')
# Conditions: 10 µM
row,SMILES,TSA(with NAD+) / Primary screening (TSA) / delta Tm (K)
1,O=C(COC(=O)CN1C(=O)CSc2ccccc21)Nc1ccccc1SCc1ccccc1,0.06
2,COCc1c(C(=O)Nc2ccc(N3CCN(Cc4ccccc4)CC3)cc2)oc2ccccc12,-0.09
3,OCCNc1ncnc2ccsc12,0.01
4,COC(=O)c1ccc2[nH]cnc2c1,-0.24
5,Cc1cn2c3c(=O)[nH]c(=O)n(C)c3nc2n1CCCN1CCc2ccccc2C1,-0.28
6,COc1cccc(-n2ccnc2SC2CCCCNC2=O)c1 (stereo not shown),-0.03
7,COc1ccc(C(=O)C2=C(O)C(=O)N(CCCN3CCOCC3)C2c2ccccc2)cc1 (stereo not shown),-0.18
8,OC1CCN(c2ncnc3ccsc23)CC1,-0.05
9,CN(c1cccnc1)S(=O)(=O)c1cnc2c(c1)c(=O)[nH]c(=O)n2C,-0.12
10,CN(c1ccc2ccccc2c1)S(=O)(=O)c1cccc(C#N)c1,-0.05
11,COc1ccc2cc(/C=C/C(=O)Nc3ccc(C(N)=O)cc3)ccc2c1,0.76
12,CN(c1ccccc1)S(=O)(=O)c1cccc(C(=O)OCC(=O)Nc2ccc(C(N)=O)cc2)c1,-0.02
13,O=C(Cc1c[nH]c2ccccc12)NCc1ccc(-c2ccc(O)cc2)cc1,0.08
14,Cc1ccc(NC(=O)CN(C)S(=O)(=O)c2ccc3c(c2)CC(=O)N3C)cc1,0.03
15,Cc1sc2ncnc(N3CCC(C(=O)Nc4sc5c(c4C(N)=O)CCC(C)C5)CC3)c2c1C (stereo not shown),0.16
16,c1ccc(-c2nc(-c3cnn(-c4ccccc4)n3)[nH]c2-c2ccccc2)cc1,0.19
17,O=C(Nc1ccccc1Cc1ccccc1)c1ccc(CN2C(=O)CNC2=O)cc1,0.05
18,O=C(c1ccc[nH]1)N1CCCC1c1ccc2c(c1)OCCCO2 (stereo not shown),0.03
19,CCCOc1ccc(C2C(C(=O)c3ccc(OC)cc3)=C(O)C(=O)N2CCCN2CCOCC2)cc1 (stereo not shown),-0.01
20,CCC(OC)C(=O)O (stereo not shown),-0.03
21,COc1ccc(C(=O)Nc2ccccc2Oc2ccccc2)cc1OC,-0.09
22,CCc1cccc(C)c1NC(=O)c1cccc(S(=O)(=O)N(C)c2ccc(C)cc2)c1,-0.11
23,N#Cc1cn(CCCOc2ccccc2)c2ccc(Cl)cc2c1=O,-0.04

row,SMILES,TSA(with NAD+) / Primary screening (TSA) / delta Tm (K)
1,Cn1c(Cl)c(C=O)c2cc(C=O)ccc21,-0.16
2,Cc1ccc(N(C)S(=O)(=O)c2cccc(C(=O)Nc3c(C)cc(C)cc3Cl)c2)cc1,0.05
3,CNc1[nH]cnc2ncnc1-2,-0.01
4,Cc1ccc(N(C)S(=O)(=O)c2cccc(C(=O)Oc3ccc4c(C)cc(=O)oc4c3)c2)cc1,0.16
5,NCc1nc2cc(C(=O)O)ccc2[nH]1,0.07
6,Cc1ccc2c(Cn3nnc(-c4ccccc4)n3)cc(=O)oc2c1C,-0.02
7,CC(CN)CCO (stereo not shown),-0.33
8,CCC(C)C(O)CN (stereo not shown),-0.05
9,CCOc1ccc(C(=O)C2=C(O)C(=O)N(CCN3CCOCC3)C2c2ccc(OCC)cc2)cc1 (stereo not shown),-0.24
10,CCCOc1ccc(C2C(C(=O)c3sc(C)nc3C)=C(O)C(=O)N2CCCN2CCOCC2)cc1 (stereo not shown),0.05
11,CCc1nc2ccccc2n1CC(=O)N1CC(C)OCC1C (stereo not shown),-0.01
12,N#CCCn1cc(C(=O)CN2CCN(C(c3ccc(F)cc3)c3ccc(F)cc3)CC2)c2ccccc21,0.21
13,NS(=O)(=O)c1ccc(Br)c(C(=O)Nc2ccc(NC(=O)CN3CCOCC3)cc2)c1,-0.09
14,CN(Cc1ccc(C(N)=O)cc1)S(=O)(=O)c1ccc2c(c1)CCC2,0.15
15,CCOc1ccc(C2C(C(=O)c3cc4ccccc4o3)=C(O)C(=O)N2CCCN2CCOCC2)cc1 (stereo not shown),-0.18
16,COc1ccccc1C1C(C(=O)c2ccc3c(c2)OCCO3)=C(O)C(=O)N1CCCN1CCOCC1 (stereo not shown),-0.16
17,NC(=O)c1cc(NC(=O)c2ccc(-c3ccccc3F)o2)ccc1Cl,-0.13
18,COc1cc(CN(C)C(=O)Cc2c(F)cccc2Cl)ccc1OCc1ccccc1,-0.21
19,COc1cc(C(C)=O)ccc1COc1ccc(C(=O)OCC(N)=O)cc1OC,0.15
20,CC(NC(=O)CNC(=O)CNC(=O)c1cccs1)c1ccccn1 (stereo not shown),0.01
21,Cc1cc(/N=C/c2c(O)ccc3ccccc23)ccc1I,0.07
22,COc1cc(CC(=O)N2CC(C(N)=O)c3ccccc32)ccc1C (stereo not shown),0.16
23,Cc1c(C(=O)CSc2nnc(NCc3ccco3)s2)oc2ccccc12,0.05

# Taken from above.
# TSA(with NAD+) / Primary screening (TSA) / delta Tm (K) with Cc1ccc(N(C)S(=O)(=O)c2cccc(C(=O)Nc3c(C)cc(C)cc3Cl)c2)cc1 reads 0.05
# TSA(with NAD+) / Primary screening (TSA) / delta Tm (K) with Cc1cc(/N=C/c2c(O)ccc3ccccc23)ccc1I reads 0.07
